Results as given in PubChem BioAssay AID1508600 (Functional Genomics Laboratory (NCATS/FGL), 2020).
Hit rate of the full screen: of about 53,000 sequences, about 3,700 (7%) were called active.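 How the source made its calls: active means gene knockdowns whose robust z-score for IL-1 alpha signal is at least 2 or at most -2, so actives lie on both sides; inactive means the rest.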 This is one part of the list.

Test: Components of the Cytosolic LPS Sensing Pathway: Gene Identification via Genome-wide siRNA Screen;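 further: robust z of the log signal after scaling to non-targeting control siRNA wells of the plate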
Details: RAW264.7 macrophages, IL-1a HTRF, actives lie on both sides, screened at 100 nM (by protocol), cells primed 5 h with Pam3CSK4 first
Outline: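 Read-out: IL-1a HTRF on supernatant, divided by plate negative-control median ×100, log-transformed and converted to robust z-score. Cells were RAW264.7 given 100 nM siRNA, Pam3CSK4-primed 5 hours, then LipidA-transfected 24 hour.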

Row | Sequence | z-score
1 | GACUUCUCCUGACAGGCUGTT against Olfr61 | inactive: -1.81
2 | GGCAGUAACUCAUGUGCCUTT against Natd1 | inactive: 0.56
3 | GGCUGUGACUUGUUAAUCATT against Tafa5 | inactive: -0.346
4 | GGAAAUCUGAAGAAUCAAGTT against Zup1 | inactive: -0.621
5 | GCCCGCGUUGCCUAAGUAUTT against Elavl4 | inactive: 1.63
6 | GGCAUUUACUACUUCAUAGTT against Nfam1 | inactive: 0.738
7 | CCACUGUGCUCAAUUUGCATT against Slc9a2 | inactive: -0.372
8 | GGUGACCACACCUUCAAAGTT against L3mbtl4 | inactive: -0.212
9 | CCUAUUCAGUCGCUCAGAGTT against Pacs1 | inactive: -1.34
10 | GGAAUAAGUACCUCAUCUUTT against Fbxw5 | inactive: -0.867
11 | GGAGAACUGUAAAUAAACUTT against Duoxa2 | active: -2.1
12 | GGUACAAAGUACAAGCCGUTT against Sowahd | inactive: 1.1
13 | AAGCGGAACUUCAGUAGCGTT against Zmiz2 | inactive: 1.35
14 | GGCCUUGAUAAUGUUCGACTT against Coq6 | inactive: 1.25
15 | GGCGAAUUGAAGGAGACCATT against Tmod3 | active: 2.54
16 | GGUGAACUGUAAUGGCUUCTT against Smyd2 | inactive: -0.209
17 | CCUGCAUUUACUCAACUUGTT against Snrpe | inactive: -1.74
18 | GGCUACGCUUUUAUUUCCCTT against Jak3 | inactive: 1.02
19 | GCAGUGUUCGAAGAUAUGATT against Ehhadh | inactive: 0.286
20 | GGAUGCACUGAUUUGGUUATT against Ptger2 | inactive: 0.956
21 | GGAUCAAAAAAAAACUGGATT against Sinhcaf | inactive: 1.19
22 | GGGUUUUUAUACUAGUUUGTT against Exosc4 | inactive: 0.384

Looked up one by one from the list above (2):
Row | Sequence | z-score
2 | GGCAGUAACUCAUGUGCCUTT against Natd1 | inactive: 0.56
11 | GGAGAACUGUAAAUAAACUTT against Duoxa2 | active: -2.1

Numbers 12–15, reprinted for reference:
Row | Sequence | z-score
12 | GGUACAAAGUACAAGCCGUTT against Sowahd | inactive: 1.1
13 | AAGCGGAACUUCAGUAGCGTT against Zmiz2 | inactive: 1.35
14 | GGCCUUGAUAAUGUUCGACTT against Coq6 | inactive: 1.25
15 | GGCGAAUUGAAGGAGACCATT against Tmod3 | active: 2.54

Later entries.

Row | Sequence | z-score
23 | GGCUUGUGUUUCUAUCUUUTT against Cct8 | inactive: -0.867
24 | GGUGGUUGUUAUUGAAAAGTT against Mical3 | inactive: 1.34
25 | CCUUAUUUAGCUAAGCAGATT against Ran | active: -2.95
26 | GGUGACUACUACACGGACUTT against Cdkl1 | inactive: -1.25
27 | GGAUUCAGCAAAUGCUUCCTT against Rcor3 | active: 2.31
28 | CCUCUUUCUAGAGCGCAUCTT against Kcnk12 | inactive: 0.0784
29 | GGUGCAUACACUGAAGGAATT against Golga2 | inactive: 0.331
30 | GCCGUGCUAUGUAUUAUUCTT against Twf1 | inactive: -1.3
31 | GGUGCAACACUCUCUAUUUTT against Afap1l1 | inactive: 0.963
32 | GCCCGUAUGGAUUUCACACTT against Dynlt3 | inactive: -0.679
33 | GGAUCCUUAAUCGAUACACTT against Gng3 | active: 2.38
34 | GGCACACACUGAUUUUUUUTT against Cops2 | inactive: 0.0987
35 | GGUGAUCCCAUUGUUUAUUTT against Fndc3c1 | inactive: 0.814
36 | CCAGACUUCUUGUAGUUAUTT against Tpx2 | inactive: -0.875
37 | CCCUCACUUAUAGAAGAUUTT against Nat2 | inactive: -0.793
38 | GCAGAUUGACUUCUCGGCUTT against Pakap | inactive: 0.258
39 | GGGCAUGGGAUUUAAUUCUTT against Dnajc11 | inactive: 1.54
40 | CCUGCAUACGAAGUACAUATT against Bsg | active: 2.75
41 | GGAAGAAAUUCCUAAUGAATT against Igsf11 | inactive: -1.01
42 | GCAAGUGGUUGAUUGAGAATT against Nsmce1 | inactive: -0.307
43 | GGCUGAUGACACUUACACATT against Vmn1r84 | inactive: -0.566
44 | GCAAGGUCAAUCAAUCGUATT against Taar1 | inactive: 0.548

Row | Sequence | z-score
45 | GCUACUUUGACAUGCACACTT against Caly | active: 2.1
46 | CCUGAACCAACAACGCAAATT against Patz1 | inactive: -0.342
47 | GCUUCACCUGACAAUGACUTT against Tsc22d3 | inactive: 1.2
48 | CCUGAACUGAAAUUCCAUGTT against Ftmt | inactive: -0.417
49 | GGGUGGAGAAAUUUUAAUGTT against Dse | inactive: -0.22
50 | GGAGCUGAGUGAAACUCUUTT against Kcnv1 | inactive: 1.03
51 | GGUAUAUCGCCUAAUCACUTT against Chd6 | inactive: -0.885
52 | GGAUCACUGGCACCAAUGUTT against Clca3a1 | inactive: -0.0483
53 | GGCAGGUAUGCAGUGAAGATT against Paqr9 | inactive: -1.63
54 | GGAAUAAGAGGAAGGUUACTT against Nanos2 | inactive: 0.148
55 | CGACAUCCCAAUAAACAAGTT against Lcn3 | inactive: -1.1
56 | GGAUGAUAGCGCAAAAGAUTT against Tmem165 | inactive: 0.279
57 | GGCUCAACUUUUGUGAUUCTT against Olfr895 | inactive: -1.45
58 | GGAAGAAGCUGAGGAAAGCTT against Spata1 | inactive: 0.15
59 | GGAAGAUAGACUUCCUCACTT against Pfdn5 | inactive: -1.26
60 | GGAAAUCAAGAAGUUUGAATT against Gmds | inactive: 0.119
61 | CCACGUAUUUAAAUAGUUCTT against Gdf3 | inactive: -0.149
62 | GCUAAGCCCUACAUGACCATT against Plcb2 | inactive: -1.82
63 | CCCGCACACCAAUUUCACGTT against Rnf128 | inactive: -0.069
64 | CGUUCUUUCAAGAAAGCAATT against Ubald2 | inactive: -1.79
65 | GGCCAACAUCAAAAUCGCCTT against Mark4 | inactive: -0.111
66 | CCUUUGUCCAUGUUACCGATT against Rps14 | inactive: 0.33

Row | Sequence | z-score
67 | CCUUGGUGGUCUGAAAUAATT against Cyp4a31 | inactive: -0.159
68 | GCUUAAUUCUUUUCAACGUTT against Gng2 | inactive: -1.66
69 | GGUGGUAUCGAUUUUGCUUTT against Cbx7 | inactive: -0.344
70 | CCUUGGUCUGAUCGACUUGTT against Gadd45g | inactive: 0.748
71 | GGUGUUAGCGAAAUGCUCATT against Prl7b1 | inactive: -0.875
72 | CGACCUGAAAGAUUCGGAATT against Ppara | inactive: -1.04
73 | GGGAGCUAUGUUGUUAAAATT against Amotl2 | inactive: 0.251
74 | GGUUAUUCAAAAAUGCAACTT against Rcor1 | inactive: -0.559
75 | CCCAUCUAUUAGAAUUGAGTT against Slc4a8 | inactive: 0.68
76 | GGAAAAGUAUCCAUGUCACTT against Impa1 | inactive: -1.75
77 | GGAUGAGAUAUUCAGCCAGTT against Rsph6a | inactive: -1.33
78 | GCAAGAACCUGGCCCAGAATT against Izumo1r | inactive: -0.0769
79 | GGGAUGAAUAUUUGUGUCATT against Spred3 | inactive: -1.83
80 | GCCUGUUAGCUAUAUUAAGTT against Ahr | inactive: 1.11
81 | GGAAGAUCUCUUGUCUGCUTT against Mtcp1 | inactive: -0.269
82 | GCGUAUAUGUUAUGCUUCATT against Zpbp | inactive: 1.15
83 | GGCAUCACAGUGUACGAUUTT against Glis3 | inactive: -0.331
84 | GGAACUGGAAAACUUCAAATT against Mrvi1 | inactive: 1.04
85 | GGUUAUUACCCACUCAAAATT against Mkks | inactive: 0.707
86 | CCCUUCACACGAGUAUGAATT against Rsph9 | inactive: 0.652
87 | GGUCGGCAAUAUCCUAUUUTT against Ttc13 | inactive: -0.584
88 | GGACAUCAACGACAGUGAATT against Cdh22 | inactive: -0.206

Part of the list above, with tabs:
Row	Sequence	z-score
79	GGGAUGAAUAUUUGUGUCATT against Spred3	inactive: -1.83
80	GCCUGUUAGCUAUAUUAAGTT against Ahr	inactive: 1.11

(continued)

Row | Sequence | z-score
89 | GGUCUUUGUAUGUCUGUUUTT against Rad51d | inactive: 1.06
90 | GGAGAGCUGCAUGAUUUCATT against Efcab2 | active: 3.67
91 | GCAGAUACGUAGAAGGAUCTT against Olfr555 | inactive: 0.116
92 | GGGCUUUUACUCCUACCUGTT against Slc43a2 | inactive: -0.794
93 | GGCCGGAAGGAUAUUACCUTT against Epha3 | inactive: -0.81
94 | GCAUUACACUGUUAAUGUUTT against Gopc | inactive: -0.138
95 | GGUGAAGCCACAAUGUUCCTT against Helt | inactive: 0.246
96 | CCUAAAACUCACCAUAGAGTT against Nfatc3 | inactive: -1.13
97 | GGAGGAAACACAUCAUUUGTT against Tmem131 | inactive: 1.15
98 | GGUAGCUAGAGAACUCUAUTT against Otud7b | inactive: 1.12
99 | GGACAUAUUGGAAACAGAATT against Plgrkt | inactive: 0.00205
100 | GCGACUUCGCUAUAUCAAGTT against Samhd1 | inactive: 1.65
101 | GCAGAGGGACAGUCUACAUTT against Rorc | inactive: -0.534
102 | GGGUGCAUGCCUUAAACAATT against Utrn | inactive: 0.812
103 | UCCAGAAAGAGAAAGCCAUTT against Ifna16 | inactive: 0.429
104 | CCUUAAUCAUUAGGAUUGCTT against Zfp655 | inactive: -0.529
105 | CGAUAUUUAUCAUGAGUGCTT against Nlrp9c | inactive: -1.9
106 | GCCACACAUAGGAACCAGUTT against Abhd16a | inactive: -0.704
107 | CGUCCAUAGAACAAUUGCATT against Rnase12 | active: 2.82
108 | CCAAAUCCCAGAGUUAUUUTT against Htr2c | inactive: 0.361
